According to US9233107B2, “Compositions and methods for the treatment of progressive multifocal leukoencephalopathy (PML)” (Biogen MA Inc., priority 2007, dated 2016):

Test system: SVG-A cells
Assay: Total cell number (DAPI+ events) / cytotoxicity in the JCV infectivity assay
Details: Homo sapiens, read-out: % Inhibition total Cell Number @10 uM
Protocol: SV40 transformed glial cells were seeded in 10% FBS media. The cells were seeded at 2000 cells per well in 75 μl of media per well. On day 2, the media was removed and replaced by 35 μl of a 1× concentrated drug aliquot combined with a 100× diluted JCV Turbo aliquot in 35 μl of 2% FBS media (JCV Turbo is a hybrid Mad-1/SVEΔ virus constructed by insertion of the regulatory region of SV40 into the regulatory region of the Mad-1 strain of JCV (Mad-1/SVE), Vacante et al., Virology 1989, 170: 353-361). The cells were incubated for an hour, after which another 65 uL aliquot of 1× concentrated drug in 2% FBS was added. […] The information is tabulated as % inhibition (as measured by the number and percentage of JCV positive cells).
JCV Infectivity Assay: SVG-A cells were seeded at 2,000 cells/well/0.075 ml of culture media in 96 flat-bottom well plate (Corning, N.Y.). […] Following a wash step with 1×PBS, primary antibody was detected with an Alexa-Fluor 488-labeled goat anti-mouse secondary antibody at 1:100 dilution in 1×PBS, cells were counterstained with DAPI at 1 μg/ml (0.05 ml/well) for 30 minutes at 37° C. […] Field images of each well were acquired and analyzed using the Cellomics ArrayScan (Thermo Scientific Inc, Waltham, Mass.) using the Target Activation software. […]

Question: How did the inhibition at 10 µM turn out when `Nc1nc2ccc(OC(F)(F)F)cc2s1` [RILUZOLE] was run?
Answer: The inhibition at 10 µM was -12%.
